No constants are given. Whether binding was seen depends on the method and setting. A result given as binding can be weak or reduced; the word gives no strength.
Tests used:
[1] = target: Leishmania mexicana UEV1 (LmxM.13.1580) (Leishmania mexicana) (UniProt E9API2); experiment: SEC-MALS; SEC-MALLS; Superdex 200 HR10/300; 25 mM Tris-HCl, 150 mM NaCl, 1 mM DTT, pH 8; samples loaded at 1.2-2 mg/mL; mixtures (1:1 molar) incubated on ice for 30 min before loading; both purified
[2] = target: Leishmania mexicana UEV1 (LmxM.13.1580) (Leishmania mexicana) (UniProt E9API2); experiment: crystal structure; UBC2 and UEV1 mixed 1:1 molar, 6.6 mg/mL in 50 mM HEPES, 150 mM NaCl, 2 mM DTT; crystals from 0.1 M Bis-Tris propane pH 7.5, 0.2 M sodium formate, 20% PEG at 25°C; space group P21, two heterodimers in the asymmetric unit; 1.7 Å; both purified

binding [1]: binds | binding [2]: binds
Substance: Leishmania mexicana UBC2 (LmxM.04.0680) (from UniProt E9AK51) (enzyme)

From paper PMC7647121
